Test results published in publication PMC11388340.
These are yes or no findings as the source states them, for the method shown. Some results given as binding are weak or reduced against the parent protein; the word gives no strength.

Columns and labels:
[1] = target: HIRA 1 to 473 (HIRA-WB) (human) (UniProt P54198); experiment: SEC; HIRA-WB and UBN1-NM co-expressed in Sf9 and co-purified by nickel affinity (His tag on HIRA), heparin and SEC; 20 mM HEPES pH 6.95, 500 mM NaCl, 0.5 mM TCEP; both purified
[2] = target: HIRA 1 to 473 (HIRA-WB) (human) (UniProt P54198); experiment: mass photometry; TwoMP mass photometer, complexes diluted with 20 mM HEPES pH 7.5, 150 mM NaCl, 0.5 mM TCEP; both purified

binding [1]: binds | binding [2]: binds
Substance: UBN1 1 to 584 (UBN1-NM) (from UniProt Q9NPG3 1-584) (domain or fragment)
